These results are taken from PubChem BioAssay AID268 (DTP/NCI, 2004).

The test system of the experiment is CD2F1 mice, P1798 lymphosarcoma sc, tumor weight T/C. Put plainly: NCI In Vivo Anticancer Drug Screen. Data for tumor model P1798 Lymphosarcoma (subcutaneous) in CD2F1 (CDF1) mice. The note with it: T/C endpoint: mean tumor weight, schedule: Q01DX010 (ip), vehicle: saline, evaluation day not shown, higher T/C = larger tumour. On the procedure:
The antitumor activity of compounds was measured in mice bearing transplantable tumors. Survival or tumor size were measured and the results are expressed as the measurement made in the treated group (T) divided by the measurement made in the vehicle treated control group (C). The tumor model used in this assay is P1798 Lymphosarcoma (subcutaneous) in CD2F1 (CDF1) mice

The structures appear in SMILES notation. The list does not hold the whole screen: it covers a few groups of compounds. Not every dose and run of a compound is shown. T/C: endpoint of the treated group in % of that of the vehicle group. Some T/C values are marked as having no survivor count here; that says nothing about deaths at the dose. Schedules are NCI's codes, taken here to give the interval after Q, in days (D) or hours (H), and the number of doses after X.

Take `CN(CCCl)CCCl`: the T/C runs as follows: (dose: 0.13 mg/kg/injection) 77 % of control [survivor count not shown]; (dose: 0.25 mg/kg/injection) 54 % of control [survivor count not shown]; (dose: 0.5 mg/kg/injection) 31 % of control [survivor count not shown]; (dose: 62.5 micrograms/kg/injection) 71 % of control [survivor count not shown]; (dose: 125.0 micrograms/kg/injection) 50 % of control [survivor count not shown]; (dose: 250.0 micrograms/kg/injection) 19 % of control [survivor count not shown]. In addition, the T/C (dose: 500.0 micrograms/kg/injection) was 57 % of control [survivor count not shown].
